Experimental data from PubChem BioAssay AID1487 (National Center for Advancing Translational Sciences (NCATS), 2009).
Some of the results follow. Shown are side measurements of this screen, not its main read-out; they come without a call. The list favours compounds with an active or inconclusive main result. Potencies come from curve fits of mixed quality, noted in brackets.

Test: qHTS Assay for Modulators of Lamin A Splicing
Settings: HeLa LMNA splicing GFP/RFP minigene ratio, 48 h
Procedure, shortened: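 S3 HeLa cells stably expressing lamin A-EGFP splicing minigene plus DsRed2, 600 cells/well, 48 h compound exposure at 37C. Laser-scanning cytometry; analysed as GFP (500-530 nm)/RFP (575-640 nm) total intensity ratio; 0.5% DMSO vehicle.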

[1] = measured here: GFP splicing reporter channel
[2] = measured here: RFP viability control channel

Structure (SMILES) | AC50 [1] | AC50 [2]
Clc1ccc(-c2ccnc(Oc3cc(Cl)ccc3Cl)n2)cc1 | 12.6 µM [falling, partial curve, poor fit] | 12.6 µM [falling, partial curve]
COC(=O)c1ccc(C(NC(=O)OCc2ccccc2)/C(F)=C/[C@@H](C)C(=O)NCc2ccc(-c3ccccc3)cc2)cc1 (stereo not given in full) | 35.5 µM [rising, single point] | 35.5 µM [rising, single point]
CN(Cc1ccccc1)C(=O)CCSc1nc(-c2ccc3c(c2)OCO3)cc(C(F)(F)F)n1 | – | 17.8 µM [rising, partial curve]
Cc1cc(C=O)c(C)n1-c1ccc(N2CCCC2)c([N+](=O)[O-])c1 | 7.08 µM [rising, full curve, poor fit] | 11.2 µM [rising, partial curve]
CC(C)(C)c1ccc(-c2nc(C=O)c3ccccn23)cc1 | 11.2 µM [rising, partial curve] | 12.6 µM [rising, partial curve]
CCc1c(C)nc(SCC(=O)Nc2ccc(Br)cc2)[nH]c1=O | – | 35.5 µM [rising, single point]
COc1ccc(N2C(=O)C(CC(=O)Nc3ccccc3)N(Cc3ccc4c(c3)OCO4)C2=O)cc1 (stereo not given) | 11.2 µM [falling, single point] | 22.4 µM [falling, partial curve, poor fit]
CCOC(=O)c1cc(-c2ccccc2)n(CCC(=O)N2CCN(c3ccc(OC)cc3)CC2)c1C | 35.5 µM [rising, single point] | 35.5 µM [rising, single point]
CCCCN1CCc2c1nc1ccc(Br)cc1c2N | – | 10 µM [rising, partial curve, poor fit]
Cc1ccccc1NC(=O)/C(C#N)=C/c1ccsc1 | – | 22.4 µM [rising, single point]
CCC(C)n1ncn(-c2ccc(N3CCN(c4ccc(O)cc4)CC3)cc2)c1=O (stereo not given) | 1 µM [rising, full curve, poor fit] | 1.41 µM [rising, full curve]
Cc1ccc(NS(=O)(=O)c2cccc(C(=O)Nc3cc(C)on3)c2)cc1 | 7.08 µM [rising, partial curve, poor fit] | 12.6 µM [rising, partial curve]
C#C[C@]1(O)CCC2C3CCC4=CC(=O)CCC4C3CC[C@@]21C (stereo not given in full) | 3.16 µM [rising, full curve] | 2.82 µM [rising, partial curve]
CCc1ccc(OCC(=O)N/N=C(\C)c2ccc3c(c2)OCCO3)cc1 | – | 1.26 µM [rising, partial curve]
CCc1nc(SCC(=O)N2c3ccccc3CC2C)c2c(C)c(C)sc2n1 (stereo not given) | 8.91 µM [falling, partial curve] | –
CCOc1ccc(C(=O)OCc2cc(=O)n3nc(C4CCCCC4)sc3n2)cc1 | 35.5 µM [falling, partial curve, poor fit] | 25.1 µM [falling, partial curve, poor fit]
CN1CCN(C2=C(Cl)C(=O)N(C3CCCCC3)C2=O)CC1 | 15.8 µM [rising, partial curve] | 12.6 µM [rising, partial curve]

Structure (SMILES) | AC50 [1] | AC50 [2]
CC(C)CC(c1nnnn1Cc1ccco1)N1CCN(c2cccc(Cl)c2)CC1 (stereo not given) | 0.00891 µM [rising, full curve, poor fit] | 22.4 µM [rising, single point]
CC(C)Oc1ccc(C(=O)/C(=C\c2cccs2)c2nc3ccccc3o2)cc1 | 31.6 µM [rising, single point] | 25.1 µM [rising, single point]
Cc1ccc(CSCC(=O)N2CCN(Cc3ccc4c(c3)OCO4)CC2)cc1 | – | 25.1 µM [rising, single point]
O=C(/C=C/c1ccc2c(c1)OCO2)Nc1nc2ccccc2s1 | – | 6.31 µM [rising, full curve, poor fit]
Cn1c(CN2CCCCC2)nc2cc(NC(=O)c3cccc(Br)c3)ccc21 | – | 14.1 µM [rising, partial curve]
CC(=O)/C(=N\Nc1ccccc1)Sc1nncn1C | 0.0447 µM [rising, full curve, poor fit] | –
CCCCC(=O)Nc1nc2c(OC)cc([N+](=O)[O-])cc2s1 | 0.01 µM [falling, full curve, poor fit] | –
CCC(Oc1ccccc1)C(=O)Nc1ccc(O)c(-c2nc3cc(C)ccc3o2)c1 (stereo not given) | 6.31 µM [rising, partial curve, poor fit] | –
CC(C)(C)c1csc(NC(=O)c2cccs2)n1 | – | 12.6 µM [rising, single point]
Cc1cc(C)nc(N/N=C/c2ccccc2OCc2cccc(Br)c2)n1 | 35.5 µM [rising, single point] | 35.5 µM [rising, single point]
CCN=c1scc(-c2ccc(F)cc2)n1/N=C/c1ccccn1 | – | 6.31 µM [rising, single point]
CCCCCCCN1N=C(C)C(C(=O)c2ccccc2)C1=O (stereo not given) | – | 35.5 µM [rising, single point]
CCCCCN1CSC(=S)N(Cc2ccccc2)C1 | 35.5 µM [rising, single point] | 35.5 µM [rising, single point]
CCOc1ccccc1Oc1cn[nH]c1-c1ccc(OC)cc1O | – | 35.5 µM [rising, single point]
O=C1O/C(=C/Br)CCC1c1cccc2ccccc12 (stereo not given) | 2.82 µM [falling, full curve] | 3.55 µM [falling, full curve]
COC(=O)c1cnn(-c2ccc(C(=O)Nc3cccc(C(C)=O)c3)cc2)c1N | – | 0.112 µM [falling, full curve]
O=C1c2oc3ccccc3c(=O)c2C(c2ccc(Br)cc2)N1c1ccccn1 (stereo not given) | – | 0.0316 µM [falling, full curve, poor fit]

One compound at a time (already shown). Values in the order: AC50 [1] | AC50 [2]
O=C(/C=C/c1ccc2c(c1)OCO2)Nc1nc2ccccc2s1 as listed: – | 6.31 µM [rising, full curve, poor fit]
COC(=O)c1cnn(-c2ccc(C(=O)Nc3cccc(C(C)=O)c3)cc2)c1N as listed: – | 0.112 µM [falling, full curve]
CCN=c1scc(-c2ccc(F)cc2)n1/N=C/c1ccccn1 as listed: – | 6.31 µM [rising, single point]
